The supplement of paper PMC8551327
Structures can show the parent of a compound that is named as a salt. Some of the results follow. No stated cut-off is given here; in the data, active = 1.25 or more and inactive = the rest. Many values rest on one well or one pass, so single values are uncertain.

These compounds were tested on Kcc2-LUC knock-in mouse primary cortical neurons (Kcc2 promoter reporter) (assay: Kcc2 promoter-driven luciferase activity relative to vehicle control (fold of vehicle (ratio)); higher = stronger Kcc2 promoter activation (Kcc2 expression enhancer)). Settings: 100 nM; 48 h.

Kcc2 promoter-driven luciferase activity, inactive:
CON(C)C(=O)C1CCCO1 (centres undefined) [N-methoxy-N-methyloxolane-2-carboxamide] 1.24
O=NN(CCCl)C(=O)NCc1ccc[n+]([O-])c1 [1-(2-Chloroethyl)-1-nitroso-3-(3-pyridylmethyl)urea N-oxide] 0.34
CC1=C2[C@H]3OC(=O)[C@@H](C)[C@@H]3CC[C@@]2(C)C=C/C1=N\O [Santonine Oxime] 0.924
CC1=C/C(=C2\N=C(N(C)C)SS2)C(C)=N1 1.1
COc1ccc2c3c([nH]c2c1N)C(C)NCC3 (centres undefined) 0.92
N#CC(=S)Nc1ccc(Cl)c(Cl)c1 [1-Cyano-N-(3,4-dichlorophenyl)methanethioamide] 1.08
COC(=O)C(=O)C(C(=O)C(=O)Nc1cc(C)ccc1C)c1nc2ccc(C(=O)c3ccccc3)cc2[nH]c1=O (centres undefined) 0.79
O=[N+]([O-])c1cccc2nc3ccccc3c(NCCCNc3c4ccccc4nc4cccc([N+](=O)[O-])c34)c12 [N,N'-Bis(1-nitroacridin-9-yl)propane-1,3-diamine] 0.94
O=[N+]([O-])c1ccc(-c2cn(-c3ccc(Cl)cc3)cn2)cc1 [1-(4-Chlorophenyl)-4-(4-nitrophenyl)imidazole] 1.04
CO[C@@H]1[C@H](O)CC[C@]2(CO2)[C@H]1[C@@]1(C)O[C@@H]1CC=C(C)C [Gelcohol] 0.92

A draw from above in order of SMILES length, descending:
Kcc2 promoter-driven luciferase activity, inactive:
COC(=O)C(=O)C(C(=O)C(=O)Nc1cc(C)ccc1C)c1nc2ccc(C(=O)c3ccccc3)cc2[nH]c1=O (centres undefined) 0.79
CC1=C2[C@H]3OC(=O)[C@@H](C)[C@@H]3CC[C@@]2(C)C=C/C1=N\O [Santonine Oxime] 0.924
O=NN(CCCl)C(=O)NCc1ccc[n+]([O-])c1 [1-(2-Chloroethyl)-1-nitroso-3-(3-pyridylmethyl)urea N-oxide] 0.34

Next part:

Kcc2 promoter-driven luciferase activity, active:
CC1=C(C(=O)NCc2ccccc2)C(c2ccccc2O)C(C(=O)NCc2ccccc2)=C(C)N1 1.4
CC(=O)OCc1c2ccccc2c(C)c2c1cc(F)c1ccccc12 [5-fluoro-7-hydroxymethyl 12-methylbenzanthracene acetate] 1.36
CNCC(=O)NC(CO)C(=O)NC(CO)C(=O)NC1C(C(N)=O)OC(n2ccc(N)nc2=O)C(O)C1O (centres undefined) [Aspiculamycin Hydrochloride] 1.25
C1CN(c2nnc(N3CCC3)nn2)C1 [3,6-Bis(azetidin-1-yl)-1,2,4,5-tetrazine] 1.39
